± gives the standard deviation of the averaged measurements. This is one part of the list. Many values rest on one well or one pass, so single values are uncertain.
tested on: RAW 264.7 macrophages infected with S. aureus JE2-lux; test: host macrophage viability (CellTiter-Fluor) relative to DMSO vehicle; higher = more viable host cells; conditions: 10 µM; treatment time 4 h; gentamicin 50 µg/ml

| Compound | host macrophage viability [%] |
| --- | --- |
| CCOC(=O)c1ccc(Oc2ncnc(N)c2[N+](=O)[O-])cc1 | 116 |
| Cc1c(N2CCN(C(=O)Cc3ccc(F)cc3)CC2)c(=O)n(CC(C)C)c(=O)n1-c1ccccc1 | 91 |
| COC(=O)c1ccc(C(=O)/N=c2/sc3cc(F)ccc3n2C)cc1 | 107 ± 5.6 |
| CCC1CCCCN1S(=O)(=O)c1ccc(C(=O)Nc2nc3c(s2)Cc2ccccc2-3)cc1 (stereo not given) | 113 |
| O=C(CC(=O)N/N=C/c1ccc(O)cc1)N/N=C\c1ccc(O)cc1 | 108 ± 11 |
| CCOC(=O)C(C)Oc1cccc2c(=O)n(CC(=O)Nc3ccc(F)cc3F)ccc12 (stereo not given) | 124 |
| Cc1ccc(-c2cc(=O)c3cc(NC(=O)c4ccccn4)ccc3o2)cc1 | 96 |
| O=C(CSCc1ccccc1)Nc1ccc2c3c(cccc13)CC2 | 96.6 |
| CCc1cc(=O)n(CC(=O)NCCC(C)C)c2c1c(C)nn2-c1ccc(C)cc1 | 115 |
| CCOC(=O)c1nn(-c2ccc(F)cc2)c(=O)cc1NCc1cccnc1 | 116 |
| Cn1c(N2CCN(C(=O)c3cc(-c4cccs4)n[nH]3)CC2)cc(=O)n(C)c1=O | 114 |
| COc1ccccc1CCNC(=O)CSc1nc(=O)n(Cc2ccco2)c2c1CCC2 | 106 |
| CN(C(=O)CSc1nc(=O)n2ccccc2n1)c1ccccc1 | 117 |
| CN1C(=O)c2cccc(NC(=O)c3sc4ccccc4c3Cl)c2C1=O | 103 |
| O=C(CSC1=NS(=O)(=O)c2ccccc2N1)Nc1ccc(Br)cc1 | 130 |
| O=C(CCS(=O)(=O)c1ccccc1)Nc1cccc2c1C(=O)NC2=O | 110 |
| CCn1cc(C(=O)N2CCc3ccccc3C2)c(=O)c2ccc(C)nc21 | 112 |
| COc1ccc(Br)cc1CNC(=O)COc1nc(C)nc2oc(C)c(C)c12 | 117 |
| O=C(Nc1ccc(S(=O)(=O)Nc2cncs2)cc1)c1ccc(-c2cccc(C(F)(F)F)c2)o1 | 118 |
| CCOc1ccc(NC(=O)CSc2nncc(=O)[nH]2)cc1 | 109 |
| N#Cc1ccccc1NC(=O)C(=O)NCc1ccccc1Cl | 113 |
| CC1CCc2c(sc3nc(SCC(=O)c4cccs4)[nH]c(=O)c23)C1 (stereo not given) | 114 |

4 compounds drawn at random from those above:

| Compound | host macrophage viability [%] |
| --- | --- |
| O=C(CC(=O)N/N=C/c1ccc(O)cc1)N/N=C\c1ccc(O)cc1 | 108 ± 11 |
| COc1ccccc1CCNC(=O)CSc1nc(=O)n(Cc2ccco2)c2c1CCC2 | 106 |
| COc1ccc(Br)cc1CNC(=O)COc1nc(C)nc2oc(C)c(C)c12 | 117 |
| O=C(CSCc1ccccc1)Nc1ccc2c3c(cccc13)CC2 | 96.6 |

The listing continues.

| Compound | host macrophage viability [%] |
| --- | --- |
| O=C(O)c1ccc(CN2C(=O)SC(Nc3ccccc3C(=O)O)C2=O)cc1 (stereo not given) | 105 |
| CCOC(=O)C1CCN(C(=O)C2CCN(c3nccc4c(C)nn(CC)c34)CC2)CC1 | 123 |
| CCn1nc(C)c2ccnc(N3CCC(C(=O)Nc4ccc(Br)c(C)c4)CC3)c21 | 107 |
| Cc1ccccc1-n1nc2c(c1NC(=O)c1cc3ccccc3oc1=O)CSC2 | 112 |
| Cc1ccc(-c2c(C(F)(F)F)nn3c(O)cc(C)nc23)cc1 | 140 |
| Fc1ccc(-n2c(SCc3cccnc3)nnc2-c2cccnc2)cc1 | 116 |
| COc1cccc(/C=C2/SC(=S)N(CC(=O)Nc3ccccc3C(=O)O)C2=O)c1 | 93.5 |
| O=C(CSCc1ccccc1)Nc1ccccc1F | 113 |
| CC(=O)c1cc(OC(=O)N2CCOCC2)ccc1OC(=O)N1CCOCC1 | 115 |
| O=C(NCc1cccnc1)c1cnn2c(C(F)(F)F)cc(-c3ccccc3)nc12 | 132 |
| CCOC(=O)c1ccc(Nc2nc(N)c(C(=O)c3cccc(Cl)c3)s2)cc1 | 102 |
| Clc1cccc2nc3n(c12)CCN(Cc1ccccc1)C3 | 117 |
| CC1(C)COc2ccc(NC(=O)Cc3cccs3)cc2NC1=O | 112 |
| Cn1c(=O)[nH]c(=O)c2cnc(-c3ccncc3)nc21 | 91.4 |
| O=C(Cc1ccccc1)NN1C(=O)/C(=C/C=C/c2ccccc2)SC1=S | 91.1 ± 8.4 |
| Nc1ncnc2c1c1nc3ccccc3nc1n2CCc1ccccc1 | 108 |
| CS(=O)(=O)Nc1nc2ccc(NC(=O)c3cccnc3)cc2s1 | 100 |
| CS(=O)CCNC(=O)Nc1cccc2ccccc12 (stereo not given) | 103 |
| CCc1ccccc1NC(=O)NC1CC2CCCC(C1)N2Cc1ccccc1 (stereo not given) | 121 |
| O=C(NC1CCCC1)c1cnc(N2CCCCC2)c2ccccc12 | 111 |
| CCOC(=O)c1nn(-c2ccc(F)cc2)c(=O)cc1OCC(=O)NCCc1ccc(OC)c(OC)c1 | 110 |
| Cc1cc2c(c(=O)n1CCO)C(c1cccc(F)c1)C(C#N)=C(N)O2 (stereo not given) | 111 |

| Compound | host macrophage viability [%] |
| --- | --- |
| Cn1c(=O)cc2c3c(c(Nc4ccccc4)ccc31)C(=O)c1ccccc1-2 | 123 |
| COc1cc(/C=C2\SC(=S)N(c3ccc(O)cc3)C2=O)cc(OC)c1OC | 120 |
| Cc1cccc(Cn2c(N(C)Cc3ccccc3)nc3c2c(=O)[nH]c(=O)n3C)c1 | 102 ± 2.9 |
| CCN1CCN(c2nn3c(NC(C)(C)C)c(-c4ccc(Cl)cc4)nc3s2)CC1 | 113 |
| COC(=O)c1c(NC(=O)Nc2c(-c3cccnc3)[nH]c3ccc(F)cc23)sc2c1CCCC2 | 98.4 |
| CCCNC(=O)Cn1nc(-c2ccc(C)cc2)c2cnc3ccc(CC)cc3c21 | 106 |
| COCCNc1c(-c2ccc(OC)c(O)c2)nc2sc3cc(Cl)ccc3n12 | 123 |
| O=C(c1ncoc1-c1ccc(F)cc1)N1CCC2(CC1)C(=O)NCN2c1ccccc1 | 106 |
| O=C(Nc1ccccc1)Nc1cccc(N2CCn3c(nc4cc(Cl)ccc43)C2)c1 | 127 |
| O=C(CSc1ccc([N+](=O)[O-])cc1[N+](=O)[O-])Nc1cccc(C(F)(F)F)c1 | 102 |
| COc1cc(Br)cc2c1Oc1nc(-c3ccccc3)nc(SCC(N)=O)c1C2 | 125 |
| Cc1sc(NC(=O)CN(Cc2ccc(F)cc2)C(=O)c2ccncc2)c(C(N)=O)c1C | 122 |
| CC(C(=O)N1CCCc2ccccc21)n1cnc2onc(-c3ccc(Cl)cc3)c2c1=O (stereo not given) | 104 |
| CCN1CC2=C(OC(N)=C(C#N)C2c2ccc(F)cc2)/C(=C/c2ccc(F)cc2)C1 (stereo not given) | 116 |
| O=C(NCCc1c[nH]c2ccccc12)C(=O)c1cn(CC(=O)N2CCCC2)c2ccccc12 | 105 |
| Cc1cc(NC(=O)CN2CC(C)CC(C)C2)nc2c1c(=O)oc1ccccc12 (stereo not given) | 126 |
| COc1cc(C(=O)NC(=S)Nc2cccc3c2C(=O)NC3=O)cc(OC)c1OC | 121 ± 14 |
| CCc1nc2ccc(NC(=O)c3nc(-c4ccc(F)cc4)oc3C)cc2[nH]1 | 103 |
| CCOC(=O)c1sc2nc(NC(=O)C3CCCCC3)sc2c1C | 97.9 |
| Cc1ccc2cc(CN(Cc3ccccc3)C(=O)c3cccnc3)c(Cl)nc2c1 | 104 |
| C=CCn1/c(=N/C(=O)c2nc3ccccc3s2)sc2cc(NC(C)=O)ccc21 | 126 |
